What is called AC50 is the midpoint of the concentration-response curve, whichever way the signal moves. A low value points to activity at low concentration.

The source of these data is PubChem BioAssay AID2685 (National Center for Advancing Translational Sciences (NCATS), 2010).

This is one part of the list. Further columns of the screen follow, without active or inactive calls. Most of these compounds were active or inconclusive in the main read-out, so they are no random draw. Potencies come from curve fits of mixed quality, noted in brackets.

A short description of the assay: qHTS Assay for Lipid Storage Modulators in Drosophila S3 Cells.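 For cell number change: cells counted by Cell Tracker Red CMTPX staining in the red channel.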 The note with it: BODIPY lipid droplet fluorescence, 18-24 h; for cell number change: measured here: cell count max response, cells fed with added oleic acid. In a few lines:
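Drosophila S3 cells got compounds at several concentrations plus oleic acid (400 uM solution). Laser-scanning cytometry with 488 nm excitation read lipid droplets at 500-530 nm and cells at 575-640 nm. Percent activity was relative to 20 uM Triacsin C.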
Background: qHTS replaces the single test concentration by a dilution series.

Where [1] appears, read: measured here: lipid fluorescence (Fed channel) AC50, cells fed with added oleic acid.
[2] abbreviates: measured here: cell number channel AC50, cells fed with added oleic acid.

Take `CCC1C2CC3C4N(C)c5ccccc5C45CC(C2C5O)N3[C@@H]1O` (stereo not given in full): under setting [1], the AC50 is 0.58 µM [rising, single point].

As to `Cc1[nH]c2c(C(F)(F)F)cccc2c1CCN`, the cell number change is -6.2%. Further, the AC50 under setting [1] is 29.1 µM [rising, single point].

As for `C=CCNC(=O)c1c(N)n(Cc2ccco2)c2nc3ccccc3nc12`, the cell number change was -44.2%. For the same compound, the AC50 under setting [2] is 29.1 µM [falling, single point]. Besides, the AC50 under setting [1] is 0.206 µM [rising, full curve].

For the compound `Cc1cccc(CN2CCN(C(=O)Cc3ccccc3)CC2)c1`, the cell number change worked out at 26.4%. The half-maximal activity concentration (AC50) under setting [1] is 29.1 µM [rising, single point].

For the compound `CCN1C(=O)/C(=C/c2ccc3c(c2)CCN3CCCCl)C(=O)NC1=S`, the cell number change is -6.91%.

For the compound `CCOc1cc2c(cc1OCC)-n1cccc1C(c1ccc(C(C)C)cc1)NC2` (stereo not given), the cell number change was -69.5%. Moreover, the concentration at half-maximal activity (AC50) under setting [2] was 7.31 µM [falling, partial curve]. For the same compound, the AC50 under setting [1] was 9.2 µM [falling, partial curve].

For the compound `Clc1ccccc1CN1CCN(c2cccc3[nH]ccc23)CC1`, the cell number change is -23.6%. Moreover, the AC50 under setting [1] is 29.1 µM [falling, single point].

Turning to `Cc1ccc(-c2cc(-c3ccccc3)cc(-c3ccccc3)[n+]2-c2ccccc2C(=O)O)cc1`, the cell number change is -45.9%. Under setting [2], the AC50 is 16.4 µM [falling, partial curve, poor fit]. Moreover, under setting [1], the AC50 is 1.64 µM [falling, partial curve].

With `CCOP(=O)(OCC)C(NC(=O)CC(C)C)C(Cl)(Cl)Cl` (stereo not given), the cell number change came out at 114%. Moreover, under setting [2], the AC50 was 2.31 µM [falling, partial curve]. Also, under setting [1], the AC50 is 6.51 µM [falling, single point].

Take `COC(=O)C1=C(c2cccc(C#N)c2)C[C@@H]2CC[C@H]1N2C(=O)N1CCCCC1`: the cell number change is -10.5%. For the same compound, under setting [1], the AC50 is 0.651 µM [rising, full curve, poor fit].

Regarding `Cc1ccc(CN2CCCC(C(=O)c3ccc4c(c3)OCO4)C2)cc1C` (stereo not given), the cell number change was -22.4%. For the same compound, the AC50 under setting [1] was 29.1 µM [falling, single point].

For the compound `COc1cc(OC)cc(-n2nc(C(=O)N3CCC4(CC3)OCCO4)c3ccccc3c2=O)c1`, the cell number change turned out to be 7.44%. Further, the AC50 under setting [1] is 29.1 µM [rising, single point].

For `Cc1cc(=O)oc2c(C)c(OCC(=O)N3CCN(Cc4ccc5c(c4)OCO5)CC3)ccc12`, the cell number change was found to be 25.7%. In addition, the AC50 under setting [1] was 6.51 µM [rising, single point].

`COC(=O)c1ccc(CN2CCN(Cc3ccccc3)CC2)cc1`: the cell number change turned out to be 10.1%. In addition, under setting [1], the AC50 is 16.4 µM [rising, single point].

Take `O=c1[nH]c(=O)n(-c2ccccc2)c(O)c1C=NC12CN3CN(CN(C3)C1)C2`: the cell number change is -26.4%. In addition, under setting [2], the AC50 was 0.00517 µM [falling, full curve, poor fit]. In addition, the AC50 under setting [1] is 0.116 µM [falling, full curve, poor fit].

`CCOC(=O)c1cccc(-[n+]2c(-c3ccccc3)cc(-c3ccccc3)cc2-c2ccccc2)c1`: the AC50 under setting [1] was 10.3 µM [falling, partial curve].

As to `CP(=O)(Nc1ccccc1)C(Cl)(Cl)Cl` (stereo not given), the cell number change is -29.2%.

Consider `Cc1ccc(S(=O)(=O)N(C)C)cc1NC(=O)C(C)[N+]12CCN(CC1)CC2` (stereo not given), for which the cell number change was found to be 66.7%.

With `Cc1ccccc1C1=NCC(=S)Nc2ccc(Cl)cc21`, the cell number change is 17.1%.

On to `C=CCn1c(O)c(C(C)=Nc2ccc(N(CC)CC)cc2)c(=O)[nH]c1=O`, for which the AC50 under setting [1] is 29.1 µM [rising, single point].

Take `COC(=O)[C@H]1[C@H]2C[C@@H]3c4[nH]c5cc(OC)ccc5c4CCN3C[C@H]2C[C@@H](OC(=O)/C=C/c2cc(OC)c(OC)c(OC)c2)[C@@H]1OC`: under setting [2], the AC50 is 3.26 µM [rising, single point].

`COc1ccc(-n2nc(C(=O)NCC(=O)N3CCC4(CC3)OCCO4)c3ccccc3c2=O)cc1`: the cell number change is 11.7%.

Turning to `CC(=Nc1ccc2c(c1)CCC2)c1c(O)n(C2CCCCC2)c(=O)[nH]c1=O`, the cell number change was -59.9%. Further, the AC50 under setting [2] is 2.31 µM [falling, full curve].

Consider `O=C1NC(=O)N(Cc2ccccc2)C(=O)/C1=C\c1ccco1`, for which the cell number change was -14.5%. Under setting [1], the AC50 was 1.03 µM [falling, full curve].

As for `Cc1c(CCN)ccc2c1[nH]c1ccccc12`, the cell number change is 5.67%. Moreover, the AC50 under setting [1] was 23.1 µM [falling, single point].

With `CCOC(=O)C1=C(C)OC(N)=C(C#N)C12C(=O)Nc1ccc(C)cc12` (stereo not given), the cell number change is -34.8%. The AC50 under setting [2] was 29.1 µM [falling, single point].

For `O=c1c2ccccc2nc(-c2ccccc2)n1-c1nccs1`, the cell number change was -0.855%. In addition, under setting [1], the AC50 was 2.91 µM [rising, single point].

As to `CCN1CCN(C(=O)Cc2ccc(C)cc2)CC1`, the cell number change is -36%. In addition, the AC50 under setting [2] was 0.259 µM [falling, partial curve, poor fit].

As for `CCCCC(=O)N/N=C/c1c(O)n(CCC2=CCCCC2)c(=O)[nH]c1=O`, the cell number change was 18.4%. Besides, the AC50 under setting [1] is 3.26 µM [rising, partial curve].

On to `OCC12CO[C@@H]3c4ccccc4[C@H](OC1)N32` (stereo not given in full), for which the cell number change is -0.0586%. Besides, the AC50 under setting [1] is 0.411 µM [falling, full curve].

Turning to `Cc1ccc2c(c1)CC1(CN2C)C(=O)NC(=O)N(C(C)C)C1=O` (stereo not given), the cell number change came to 30.6%. The AC50 under setting [2] was 16.4 µM [rising, partial curve, poor fit].

Turning to `COC(=O)c1c(C)n(Cc2ccc3c(c2)OCO3)c2ccc(O)cc12`, the AC50 was 2.06 µM [rising, partial curve] under setting [2] and 2.59 µM [rising, partial curve] under setting [1].

`CN1CCC(N(C)Cc2cccnc2)CC1`: the cell number change was -23.9%. Further, the AC50 under setting [2] is 0.58 µM [falling, full curve, poor fit]. In addition, the AC50 under setting [1] is 18.4 µM [falling, partial curve].

As to `CCc1n[nH]c(CCN)n1`, the cell number change was -25.8%. Moreover, the AC50 under setting [1] is 2.06 µM [falling, full curve].

On to `C[C@H]1CC[C@@H]2N(C1)C[C@H]1[C@@H]3C[C@H]4[C@@H](CC(=O)[C@H]5C[C@@H](O)CC[C@@]54C)[C@@H]3CC[C@H]1[C@]2(C)O`, for which the cell number change was found to be 39.7%. Also, the AC50 under setting [2] was 20.6 µM [rising, single point]. The AC50 under setting [1] was 29.1 µM [rising, single point].

Turning to `COC(=O)C1=C(c2ccc(F)cc2OCc2ccccc2)C[C@@H]2CC[C@H]1N2C(=O)NC1CC1`, the cell number change was -10.7%. Moreover, under setting [1], the AC50 was 0.82 µM [rising, single point].

Turning to `CNCC(O)c1ccc(O)cc1` (stereo not given), the cell number change was -5%. For the same compound, under setting [1], the half-maximal activity concentration (AC50) was 20.6 µM [rising, single point].

`Cc1ccc(N2C(=O)NC(=O)/C(=C\c3cccn3C(C)(C)C)C2=O)cc1`: the cell number change is -2.89%.

As for `CN1CCc2c(C#N)c(Cl)nc(Cl)c2C1`, the cell number change is -6.01%. Further, the AC50 under setting [1] is 20.6 µM [falling, single point].

In the case of `O=c1c(C=NCCN2CCNCC2)c(O)n(C2CCCCC2)c(=O)n1C1CCCCC1`, the AC50 under setting [1] is 6.51 µM [falling, single point].

On to `COC(=O)C1=C(c2ccc(OC)c(OC)c2)C[C@@H]2CC[C@H]1N2C(=O)NCCOc1ccccc1`, for which the cell number change amounted to 24.8%. The half-maximal activity concentration (AC50) under setting [1] was 0.82 µM [rising, single point].

On to `Cc1nc2cc(-c3ccccc3)nn2c(C)c1CCC(=O)N1CCC2(CC1)OCCO2`, for which the cell number change was -0.312%.

For `COc1ccc(OCC(=O)N2CCN(C3CCC(c4ccccc4)CC3)CC2)cc1` (stereo not given), the cell number change worked out at 33.9%. The concentration at half-maximal activity (AC50) under setting [2] is 9.2 µM [rising, single point].

As to `O=C1CN=C(c2ccc(F)cc2)c2oc3ccccc3c2N1`, the AC50 under setting [2] is 1.84 µM [falling, partial curve, poor fit] and the AC50 under setting [1] is 6.51 µM [falling, single point].

In the case of `O=C(c1cccnc1)c1cc2ccccc2[nH]1`, the cell number change came out at 1.76%. Further, under setting [1], the AC50 was 8.2 µM [rising, partial curve].

Regarding `CC(C)N1CCN(Cc2ccc3c(c2)OCCO3)CC1CCO` (stereo not given), the cell number change came to 1.2%. Moreover, the AC50 under setting [1] was 6.51 µM [falling, partial curve].

As to `Cc1ccc(CC2C(=O)N(C)C(=O)N(C)C2=O)s1`, the half-maximal activity concentration (AC50) runs as follows: under setting [2], 6.51 µM [falling, single point]; under setting [1], 6.51 µM [falling, single point].

Take `COC(=O)C1=C(c2ccc(F)cc2F)C[C@@H]2CC[C@H]1N2C(=O)NCc1ccco1`: the cell number change worked out at 2.53%. The AC50 under setting [1] is 6.51 µM [rising, single point].

For the compound `CCOc1cc2c(cc1OCC)-n1cccc1C(c1ccc(F)cc1)NC2` (stereo not given), the cell number change was -34.1%. Moreover, under setting [2], the AC50 was 29.1 µM [falling, single point]. Under setting [1], the AC50 is 29.1 µM [falling, single point].

In the case of `CCC(=NCCN1CCOCC1)c1c(O)n(-c2ccccc2C)c(=O)[nH]c1=O`, the cell number change was 7.88%. For the same compound, the AC50 under setting [1] is 6.51 µM [rising, partial curve].

Regarding `COc1ccccc1NC(=O)c1cn(CCC#N)nc1-c1ccc(F)cc1`, the cell number change stood at 16.8%.

With `O=C(Cc1ccccc1)Oc1ccc(N2C(=O)CCC2=O)cc1`, the cell number change was -18.1%. Besides, under setting [1], the AC50 is 1.16 µM [falling, partial curve].

In the case of `CP(=O)(O)CN1CCCCC1`, the cell number change is -51.7%. Besides, the AC50 under setting [2] was 29.1 µM [falling, single point].

On to `CCCCCCOc1ccc(CN2CCN(C)CC2)cc1`, for which the cell number change is -118%. The AC50 under setting [2] was 16.4 µM [falling, partial curve]. Under setting [1], the half-maximal activity concentration (AC50) was 14.6 µM [falling, partial curve].

As for `CCC(C)C12CN3CCN(CC(C)(C3)C1O)C2` (stereo not given), the cell number change was 51.9%. Moreover, the AC50 under setting [2] is 3.66 µM [falling, partial curve, poor fit].

For `O=C(COC(=O)Cc1ccccc1)Nc1ccc(F)cc1`, the cell number change was determined as 20.7%. The AC50 under setting [2] was 3.66 µM [rising, single point]. For the same compound, under setting [1], the concentration at half-maximal activity (AC50) is 9.2 µM [falling, single point].

Consider `CC(C)(C)NC(=O)C1CC2CCCCC2CN1` (stereo not given), for which the cell number change was 11.7%. In addition, the AC50 under setting [1] was 29.1 µM [falling, single point].

Take `O=c1[nH]c(=O)n(CCC2=CCCCC2)c(O)c1C=NCCN1CCNCC1`: the cell number change is -21.5%. The AC50 under setting [1] was 18.4 µM [falling, partial curve, poor fit].

In the case of `C=CCC1C(=O)NC(=S)NC1=O`, the cell number change is -10.4%. In addition, the AC50 under setting [1] was 0.0291 µM [falling, full curve, poor fit].
